Data: publication doi:10.1101/500736
No constants are given. Whether binding was seen depends on the method and setting. Some results given as binding are weak or reduced against the parent protein; the word gives no strength.

T1: NGA3 (Arabidopsis thaliana) (UniProt Q9MAN1)
T1 sequence: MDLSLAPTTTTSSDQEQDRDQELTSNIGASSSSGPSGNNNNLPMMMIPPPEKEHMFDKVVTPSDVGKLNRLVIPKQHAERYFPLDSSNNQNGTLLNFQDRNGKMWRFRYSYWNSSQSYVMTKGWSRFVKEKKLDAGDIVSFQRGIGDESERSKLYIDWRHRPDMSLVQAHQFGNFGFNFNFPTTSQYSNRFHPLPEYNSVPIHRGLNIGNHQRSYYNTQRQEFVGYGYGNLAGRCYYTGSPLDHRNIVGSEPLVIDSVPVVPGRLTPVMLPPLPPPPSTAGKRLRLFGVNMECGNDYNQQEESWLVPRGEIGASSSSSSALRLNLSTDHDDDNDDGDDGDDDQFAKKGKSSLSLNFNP

T2: ARR15 (Arabidopsis thaliana) (UniProt Q7G8V2)
T2 sequence: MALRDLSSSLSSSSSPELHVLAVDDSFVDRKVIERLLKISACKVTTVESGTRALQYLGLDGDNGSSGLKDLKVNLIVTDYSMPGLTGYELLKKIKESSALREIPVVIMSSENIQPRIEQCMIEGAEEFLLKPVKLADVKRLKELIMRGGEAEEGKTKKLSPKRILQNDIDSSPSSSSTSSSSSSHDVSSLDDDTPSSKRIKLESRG


Columns and labels:
[1] = target: T1, NGA3 (Arabidopsis thaliana); assay: two-hybrid
[2] = target: T2, ARR15 (Arabidopsis thaliana); assay: two-hybrid

Row | binding [1] | binding [2] | Binder
1 | binds | – | CRC (protein, UniProt Q8L925 1-181) MNLEEKPTMTASRASPQAEHLYYVRCSICNTILAVGIPLKRMLDTVTVKCGHCGNLSFLTTTPPLQGHVSLTLQMQSFGGSDYKKGSSSSSSSSTSSDQPPSPSPPFVVKPPEKKQRLPSAYNRFMRDEIQRIKSANPEIPHREAFSAAAKNWAKYIPNSPTSITSGGHNMIHGLGFGEKK
2 | – | binds | PAN (protein, UniProt Q9SX27 1-452) MQSSFKTVPFTPDFYSQSSYFFRGDSCLEEFHQPVNGFHHEEAIDLSPNVTIASANLHYTTFDTVMDCGGGGGGGLRERLEGGEEECLDTGQLVYQKGTRLVGGGVGEVNSSWCDSVSAMADNSQHTDTSTDIDTDDKTQLNGGHQGMLLATNCSDQSNVKSSDQRTLRRLAQNREAARKSRLRKKAYVQQLENSRIRLAQLEEELKRARQQGSLVERGVSADHTHLAAGNGVFSFELEYTRWKEEHQRMINDLRSGVNSQLGDNDLRVLVDAVMSHYDEIFRLKGIGTKVDVFHMLSGMWKTPAERFFMWLGGFRSSELLKILGNHVDPLTDQQLIGICNLQQSSQQAEDALSQGMEALQQSLLETLSSASMGPNSSANVADYMGHMAMAMGKLGTLENFLRQADLLRQQTLQQLHRILTTRQAARAFLVIHDYISRLRALSSLWLARPRD
